Six molecules from article PMC8058060, “The transcriptional activator of the bfp operon in EPEC (PerA) interacts with the RNA polymerase alpha subunit” (Scientific Reports, 2021) can be followed below.

Protein sequences, listed by entry. Tags and fused reporters are not part of them.
UniProt P00579: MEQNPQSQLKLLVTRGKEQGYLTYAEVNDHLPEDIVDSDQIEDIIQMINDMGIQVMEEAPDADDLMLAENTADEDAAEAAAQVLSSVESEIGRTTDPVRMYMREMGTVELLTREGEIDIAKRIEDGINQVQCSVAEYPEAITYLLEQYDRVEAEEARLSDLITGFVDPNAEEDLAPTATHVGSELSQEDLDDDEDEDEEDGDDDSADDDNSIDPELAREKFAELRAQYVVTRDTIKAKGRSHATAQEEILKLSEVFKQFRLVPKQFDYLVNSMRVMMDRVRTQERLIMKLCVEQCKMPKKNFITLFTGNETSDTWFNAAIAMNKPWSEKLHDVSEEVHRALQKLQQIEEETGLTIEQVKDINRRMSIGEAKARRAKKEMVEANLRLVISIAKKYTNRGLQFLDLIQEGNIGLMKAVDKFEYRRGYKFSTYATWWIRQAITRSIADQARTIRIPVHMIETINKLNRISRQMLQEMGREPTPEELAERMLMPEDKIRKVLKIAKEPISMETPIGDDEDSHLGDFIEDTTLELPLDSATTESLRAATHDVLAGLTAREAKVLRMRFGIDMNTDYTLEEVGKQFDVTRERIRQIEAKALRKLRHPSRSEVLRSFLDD
UniProt P0A7Z4: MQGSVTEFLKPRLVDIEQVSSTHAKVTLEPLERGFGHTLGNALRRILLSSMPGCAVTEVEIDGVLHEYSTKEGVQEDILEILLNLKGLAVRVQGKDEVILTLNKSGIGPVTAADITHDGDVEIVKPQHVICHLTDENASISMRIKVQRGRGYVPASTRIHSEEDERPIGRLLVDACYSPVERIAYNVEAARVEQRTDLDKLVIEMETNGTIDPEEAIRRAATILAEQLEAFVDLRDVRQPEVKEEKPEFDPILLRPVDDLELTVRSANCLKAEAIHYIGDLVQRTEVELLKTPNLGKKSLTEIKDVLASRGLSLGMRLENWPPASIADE
UniProt P0A9E5: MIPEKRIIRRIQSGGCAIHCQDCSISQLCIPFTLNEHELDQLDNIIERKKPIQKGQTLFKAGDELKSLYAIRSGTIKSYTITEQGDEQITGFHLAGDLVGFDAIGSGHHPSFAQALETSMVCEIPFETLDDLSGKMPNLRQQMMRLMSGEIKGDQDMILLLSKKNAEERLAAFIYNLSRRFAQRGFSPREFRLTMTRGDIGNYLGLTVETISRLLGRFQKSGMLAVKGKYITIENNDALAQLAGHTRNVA

Results are given in words; binding and its absence hold for the method and conditions named. Binding seen in cells or lysates may run through a third protein. A yes stands for co-enrichment or nearness to the bait. Other partners may have been found. Tags and fused reporters may be left off the sequences shown.

Sequences and labels used below:
T1: MBP-PerA fusion (enteropathogenic E. coli (EPEC)) (UniProt P43459)
T1 sequence: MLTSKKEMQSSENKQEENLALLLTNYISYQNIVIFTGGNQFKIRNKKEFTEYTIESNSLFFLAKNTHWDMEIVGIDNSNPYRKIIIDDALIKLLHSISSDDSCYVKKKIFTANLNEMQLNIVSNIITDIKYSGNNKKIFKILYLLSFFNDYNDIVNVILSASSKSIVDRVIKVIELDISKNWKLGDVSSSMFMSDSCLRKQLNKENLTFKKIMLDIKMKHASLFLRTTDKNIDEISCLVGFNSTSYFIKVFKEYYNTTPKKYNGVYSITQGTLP

B1: ATP-dependent Clp protease ATP-binding subunit ClpA (protein, UniProt P0ABH9 1-758)
chain: MLNQELELSLNMAFARAREHRHEFMTVEHLLLALLSNPSAREALEACSVDLVALRQELEAFIEQTTPVLPASEEERDTQPTLSFQRVLQRAVFHVQSSGRNEVTGANVLVAIFSEQESQAAYLLRKHEVSRLDVVNFISHGTRKDEPTQSSDPGSQPNSEEQAGGEERMENFTTNLNQLARVGGIDPLIGREKELERAIQVLCRRRKNNPLLVGESGVGKTAIAEGLAWRIVQGDVPEVMADCTIYSLDIGSLLAGTKYRGDFEKRFKALLKQLEQDTNSILFIDEIHTIIGAGAASGGQVDAANLIKPLLSSGKIRVIGSTTYQEFSNIFEKDRALARRFQKIDITEPSIEETVQIINGLKPKYEAHHDVRYTAKAVRAAVELAVKYINDRHLPDKAIDVIDEAGARARLMPVSKRKKTVNVADIESVVARIARIPEKSVSQSDRDTLKNLGDRLKMLVFGQDKAIEALTEAIKMARAGLGHEHKPVGSFLFAGPTGVGKTEVTVQLSKALGIELLRFDMSEYMERHTVSRLIGAPPGYVGFDQGGLLTDAVIKHPHAVLLLDEIEKAHPDVFNILLQVMDNGTLTDNNGRKADFRNVVLVMTTNAGVRETERKSIGLIHQDNSTDAMEEIKKIFTPEFRNRLDNIIWFDHLSTDVIHQVVDKFIVELQVQLDQKGVSLEVSQEARNWLAEKGYDRAMGARPMARVIQDNLKKPLANELLFGSLVDGGQVTVALDKEKNELTYGFQSAQKHKAEAAH
B2: DNA-binding transcriptional regulator KdgR (protein, UniProt P76268 1-263)
chain: MANADLDKQPDSVSSVLKVFGILQALGEEREIGITELSQRVMMSKSTVYRFLQTMKTLGYVAQEGESEKYSLTLKLFELGARALQNVDLIRSADIQMRELSRLTKETIHLGALDEDSIVYIHKIDSMYNLRMYSRIGRRNPLYSTAIGKVLLAWRDRDEVKQILEGVEYKRSTERTITSTEALLPVLDQVREQGYGEDNEEQEEGLRCIAVPVFDRFGVVIAGLSISFPTLRFSEERLQEYVAMLHTAARKISAQMGYHDYPF
B3: DNA-binding protein H-NS (protein, UniProt P0ACF8 1-137)
chain: MSEALKILNNIRTLRAQARECTLETLEEMLEKLEVVVNERREEESAAAAEVEERTRKLQQYREMLIADGIDPNELLNSLAAVKSGTKAKRAQRPAKYSYVDENGETKTWTGQGRTPAVIKKAMDEQGKSLDDFLIKQ

The target in this test is T1, MBP-PerA fusion (enteropathogenic E. coli (EPEC)). The test is described as follows: affinity purification with mass spectrometry; purified MBP-PerA or MBP (40 µg) immobilised on 70 µl amylose magnetic beads (2 h, 4 °C), mixed with 400 µl ΔperA and WT E2348/69 soluble cell extracts for 4 h at 4 °C; ten washes; SDS-PAGE, differential bands cut for LC-MS/MS; only the target purified.
With “DNA-directed RNA polymerase sigma factor RpoD (from UniProt P00579 1-613)”, the binding entry is given as “binds”.
In the case of “DNA-directed RNA polymerase subunit alpha (endogenous) (from UniProt P0A7Z4 1-329)”, the binding result is “binds”.
As to “Transcriptional regulator FNR (from UniProt P0A9E5 1-250)”, the binding result is “binds”.
Take B1: the binding entry is on record as “binds”.
As for B2, the entry is “binds”; as for B3, “binds”.
